These are yes or no findings as the source states them, for the method shown. In cells and extracts the contact can be indirect. Some entries that bind do so weakly or less than the wild type. Where a sequence is shown, tags or fusion partners need not be part of it.

By UniProt entry, the sequences of proteins in these tests, tags left out.
UniProt Q9W3M3: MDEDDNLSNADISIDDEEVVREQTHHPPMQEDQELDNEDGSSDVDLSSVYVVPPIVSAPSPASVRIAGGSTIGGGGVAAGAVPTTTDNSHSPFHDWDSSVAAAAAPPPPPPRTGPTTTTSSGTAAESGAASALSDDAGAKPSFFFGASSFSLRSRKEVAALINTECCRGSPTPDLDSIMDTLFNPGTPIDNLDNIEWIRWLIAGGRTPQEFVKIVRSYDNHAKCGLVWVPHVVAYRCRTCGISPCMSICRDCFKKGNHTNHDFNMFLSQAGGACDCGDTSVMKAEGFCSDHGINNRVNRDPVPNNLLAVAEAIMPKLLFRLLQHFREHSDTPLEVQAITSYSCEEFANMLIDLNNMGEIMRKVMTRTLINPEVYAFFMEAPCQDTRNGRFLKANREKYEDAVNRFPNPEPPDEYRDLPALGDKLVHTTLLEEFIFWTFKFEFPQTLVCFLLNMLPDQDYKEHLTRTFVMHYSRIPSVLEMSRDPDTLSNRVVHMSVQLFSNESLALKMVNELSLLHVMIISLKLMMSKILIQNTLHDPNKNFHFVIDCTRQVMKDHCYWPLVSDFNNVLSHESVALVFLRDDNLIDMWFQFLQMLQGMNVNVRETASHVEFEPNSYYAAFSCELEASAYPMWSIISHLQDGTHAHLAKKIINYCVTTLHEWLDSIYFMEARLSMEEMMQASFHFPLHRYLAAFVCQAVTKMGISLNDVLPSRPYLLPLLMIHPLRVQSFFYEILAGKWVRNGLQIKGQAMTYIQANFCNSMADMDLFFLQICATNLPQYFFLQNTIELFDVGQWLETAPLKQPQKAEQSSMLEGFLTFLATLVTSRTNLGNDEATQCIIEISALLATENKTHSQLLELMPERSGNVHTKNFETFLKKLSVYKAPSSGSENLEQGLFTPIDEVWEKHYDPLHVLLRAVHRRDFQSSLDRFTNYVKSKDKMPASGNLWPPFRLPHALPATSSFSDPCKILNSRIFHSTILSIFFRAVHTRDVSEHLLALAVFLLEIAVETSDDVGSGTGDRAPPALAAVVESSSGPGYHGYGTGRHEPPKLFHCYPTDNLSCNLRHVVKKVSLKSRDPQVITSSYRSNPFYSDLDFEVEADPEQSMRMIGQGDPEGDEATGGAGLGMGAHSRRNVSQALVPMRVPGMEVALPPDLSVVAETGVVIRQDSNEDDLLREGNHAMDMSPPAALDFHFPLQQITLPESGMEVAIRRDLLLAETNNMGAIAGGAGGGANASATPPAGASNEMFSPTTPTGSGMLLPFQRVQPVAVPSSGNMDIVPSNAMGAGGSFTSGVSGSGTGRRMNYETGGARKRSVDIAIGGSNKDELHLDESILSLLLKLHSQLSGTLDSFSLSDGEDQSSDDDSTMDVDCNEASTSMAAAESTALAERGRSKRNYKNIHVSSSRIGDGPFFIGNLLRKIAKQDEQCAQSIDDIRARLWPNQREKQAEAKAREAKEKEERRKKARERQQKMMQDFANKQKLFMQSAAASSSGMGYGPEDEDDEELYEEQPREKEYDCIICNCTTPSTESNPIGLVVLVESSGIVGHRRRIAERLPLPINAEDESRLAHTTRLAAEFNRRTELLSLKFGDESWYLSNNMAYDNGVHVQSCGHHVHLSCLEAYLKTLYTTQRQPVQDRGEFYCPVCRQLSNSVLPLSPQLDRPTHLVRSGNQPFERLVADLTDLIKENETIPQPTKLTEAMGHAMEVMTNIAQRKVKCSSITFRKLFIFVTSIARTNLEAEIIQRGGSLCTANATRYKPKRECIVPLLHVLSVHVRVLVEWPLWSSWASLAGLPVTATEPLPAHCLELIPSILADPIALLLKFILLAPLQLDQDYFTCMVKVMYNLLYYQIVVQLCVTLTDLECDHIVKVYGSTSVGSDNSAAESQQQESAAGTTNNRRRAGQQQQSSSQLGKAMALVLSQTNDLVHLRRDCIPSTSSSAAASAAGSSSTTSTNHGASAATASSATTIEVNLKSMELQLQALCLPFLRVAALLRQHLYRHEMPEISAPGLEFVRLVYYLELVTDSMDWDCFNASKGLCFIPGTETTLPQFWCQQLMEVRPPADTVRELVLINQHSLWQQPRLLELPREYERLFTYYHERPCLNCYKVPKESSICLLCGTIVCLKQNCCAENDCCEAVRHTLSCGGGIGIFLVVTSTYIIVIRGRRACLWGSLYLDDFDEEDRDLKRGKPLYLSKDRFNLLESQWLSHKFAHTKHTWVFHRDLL

Test [1] has as its target T1, DIAP1, GFP-tagged (Drosophila) (UniProt Q24306).
T1 sequence: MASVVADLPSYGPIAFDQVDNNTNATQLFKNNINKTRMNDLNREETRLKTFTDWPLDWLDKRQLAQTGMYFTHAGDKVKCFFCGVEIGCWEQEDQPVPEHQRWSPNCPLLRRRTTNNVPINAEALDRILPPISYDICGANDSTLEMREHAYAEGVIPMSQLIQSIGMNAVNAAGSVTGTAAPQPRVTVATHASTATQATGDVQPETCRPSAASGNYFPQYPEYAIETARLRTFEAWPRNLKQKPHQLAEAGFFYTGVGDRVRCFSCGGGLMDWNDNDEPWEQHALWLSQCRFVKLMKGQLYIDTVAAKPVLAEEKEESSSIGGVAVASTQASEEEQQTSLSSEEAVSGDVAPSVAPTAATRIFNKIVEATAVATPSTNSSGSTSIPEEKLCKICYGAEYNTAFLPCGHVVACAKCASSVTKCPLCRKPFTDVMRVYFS
As to the kind of experiment: co-IP; Ubr3::V5 and DIAP1::GFP co-expressed in S2 cells without pri; immunoprecipitation with anti-GFP or anti-V5 antibodies, western blot. In general terms: In western blotting, separated proteins are transferred to a membrane and probed.

Test [2] concerns the target T1, DIAP1, GFP-tagged (Drosophila). Description: co-IP; Ubr3::V5 and DIAP1::GFP co-expressed in S2 cells with pri (pMT-pri induced by CuSO4 at 1 mM for 2 hours); immunoprecipitation with anti-GFP or anti-V5 antibodies, western blot.

“E3 ubiquitin ligase Ubr3, V5-tagged (from UniProt Q9W3M3 1-2219) (enzyme)”: the results for the binding entry in test [1] and in test [2] were “binds weakly” and “binds”, respectively.
